PubChem BioAssay AID493246, Drosophila RNAi Screening Center, 2011

Purpose: 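Genes fly cells need to grow and stay alive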 (primary screen)
System: Drosophila Kc and S2R+ cells
Knock-down reagent: long dsRNA against Drosophila genes
Measured: 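Cell number per well after knock-down, printed as raw plate values; calls were based on per-plate z-scores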
Scale: Kc cell number and S2R+ cell number: higher = more cells remaining
Call rule: 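Counted as a hit if cell number falls by a z-score of at least 3 within its plate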
The deposit covers about 21,000 reagents; shown is a random part of those that have a named target and a result. In the full data, 429 (2%) are marked active. 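Values are raw and not normalised between plates; calls rest on per-plate z-scores that were not deposited.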 Unmarked entries are inactive. The numbers tell different reagents against one gene apart. Names joined by + are all predicted targets of the reagent. Not given: the amount of reagent, the time to read-out.

CG12849
- Kc cell number, rep 1: 1.73e6
- Kc cell number, rep 2: 1.71e6
- S2R+ cell number, rep 1: 1.34e6
- S2R+ cell number, rep 2: 1.31e6

CG5883
- Kc cell number, rep 1: 1.29e6
- Kc cell number, rep 2: 1.26e6
- S2R+ cell number, rep 1: 1.20e6
- S2R+ cell number, rep 2: 1.26e6

CG13114
- Kc cell number, rep 1: 1.78e6
- Kc cell number, rep 2: 1.89e6
- S2R+ cell number, rep 1: 1.15e6
- S2R+ cell number, rep 2: 1.33e6

CG17650
- Kc cell number, rep 1: 1.50e6
- Kc cell number, rep 2: 1.52e6
- S2R+ cell number, rep 1: 1.12e6
- S2R+ cell number, rep 2: 1.32e6

btl
- Kc cell number, rep 1: 1.55e6
- Kc cell number, rep 2: 1.71e6
- S2R+ cell number, rep 1: 1.38e6
- S2R+ cell number, rep 2: 1.62e6

CG13751
- Kc cell number, rep 1: 1.57e6
- Kc cell number, rep 2: 1.54e6
- S2R+ cell number, rep 1: 1.27e6
- S2R+ cell number, rep 2: 1.35e6

mh
- Kc cell number, rep 1: 1.45e6
- Kc cell number, rep 2: 1.47e6
- S2R+ cell number, rep 1: 9.45e5
- S2R+ cell number, rep 2: 1.02e6

ND-B17.2
- Kc cell number, rep 1: 1.62e6
- Kc cell number, rep 2: 1.62e6
- S2R+ cell number, rep 1: 1.07e6
- S2R+ cell number, rep 2: 1.17e6

CG15387
- Kc cell number, rep 1: 1.53e6
- Kc cell number, rep 2: 1.56e6
- S2R+ cell number, rep 1: 1.04e6
- S2R+ cell number, rep 2: 1.18e6

CG12661
- Kc cell number, rep 1: 1.59e6
- Kc cell number, rep 2: 1.55e6
- S2R+ cell number, rep 1: 1.09e6
- S2R+ cell number, rep 2: 1.24e6

twin #1
- Kc cell number, rep 1: 1.52e6
- Kc cell number, rep 2: 1.64e6
- S2R+ cell number, rep 1: 1.17e6
- S2R+ cell number, rep 2: 1.21e6

twin #2
- Kc cell number, rep 1: 1.50e6
- Kc cell number, rep 2: 1.57e6
- S2R+ cell number, rep 1: 9.95e5
- S2R+ cell number, rep 2: 1.11e6

CG14257
- Kc cell number, rep 1: 1.44e6
- Kc cell number, rep 2: 1.47e6
- S2R+ cell number, rep 1: 9.70e5
- S2R+ cell number, rep 2: 1.09e6

Phk-3
- Kc cell number, rep 1: 1.56e6
- Kc cell number, rep 2: 1.47e6
- S2R+ cell number, rep 1: 1.30e6
- S2R+ cell number, rep 2: 1.38e6

Cyp316a1
- Kc cell number, rep 1: 1.32e6
- Kc cell number, rep 2: 1.31e6
- S2R+ cell number, rep 1: 1.07e6
- S2R+ cell number, rep 2: 1.17e6

CG7011 + Prp31
- Kc cell number, rep 1: 1.86e6
- Kc cell number, rep 2: 1.93e6
- S2R+ cell number, rep 1: 1.24e6
- S2R+ cell number, rep 2: 1.31e6

Buffy
- Kc cell number, rep 1: 1.62e6
- Kc cell number, rep 2: 1.70e6
- S2R+ cell number, rep 1: 1.39e6
- S2R+ cell number, rep 2: 1.41e6

eys #1
- Kc cell number, rep 1: 1.47e6
- Kc cell number, rep 2: 1.53e6
- S2R+ cell number, rep 1: 9.78e5
- S2R+ cell number, rep 2: 1.06e6

eys #2
- Kc cell number, rep 1: 1.47e6
- Kc cell number, rep 2: 1.50e6
- S2R+ cell number, rep 1: 1.01e6
- S2R+ cell number, rep 2: 1.17e6

eys #3
- Kc cell number, rep 1: 1.45e6
- Kc cell number, rep 2: 1.54e6
- S2R+ cell number, rep 1: 9.30e5
- S2R+ cell number, rep 2: 1.03e6

eys #4
- Kc cell number, rep 1: 1.32e6
- Kc cell number, rep 2: 1.46e6
- S2R+ cell number, rep 1: 1.01e6
- S2R+ cell number, rep 2: 9.71e5

Sorted by “Kc cell number, rep 1” (descending): 2 of the entries above
Phk-3
- Kc cell number, rep 1: 1.56e6
- Kc cell number, rep 2: 1.47e6
- S2R+ cell number, rep 1: 1.30e6
- S2R+ cell number, rep 2: 1.38e6

CG14257
- Kc cell number, rep 1: 1.44e6
- Kc cell number, rep 2: 1.47e6
- S2R+ cell number, rep 1: 9.70e5
- S2R+ cell number, rep 2: 1.09e6
